Laboratory results published in US20160102316A1, “STRESS TOLERANT PLANTS” (CONSEJO SUPERIOR DE INVESTIGACIONES CIENTIFICAS(CSIC), priority 2013, published 2016).
Results are given in words; binding and its absence hold for the method and conditions named. Some entries that bind do so weakly or less than the wild type.

Experiments:
[1] = molecular target: T1, full length PYL4 (Arabidopsis) (UniProt O80920); assay: in vivo; assay not described in the filing
T1 sequence (looked up): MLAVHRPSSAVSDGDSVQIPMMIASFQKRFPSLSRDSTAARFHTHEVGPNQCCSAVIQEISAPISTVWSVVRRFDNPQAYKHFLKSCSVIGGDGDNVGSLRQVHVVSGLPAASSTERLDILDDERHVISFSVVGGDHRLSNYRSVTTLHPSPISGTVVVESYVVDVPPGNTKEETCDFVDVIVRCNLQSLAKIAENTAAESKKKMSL

[2] = molecular target: T2, full length PYL9 (Arabidopsis) (UniProt Q84MC7); assay: in vivo; assay not described in the filing
T2 sequence (looked up): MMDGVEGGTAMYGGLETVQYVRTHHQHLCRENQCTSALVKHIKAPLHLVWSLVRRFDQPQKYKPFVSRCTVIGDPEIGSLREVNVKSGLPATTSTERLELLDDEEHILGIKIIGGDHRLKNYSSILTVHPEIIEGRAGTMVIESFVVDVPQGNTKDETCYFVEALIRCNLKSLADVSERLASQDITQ

B1: DDA1:YFPC (other)
chain: MASILGDLPSFDPHNFSQHRPSDPSNPSKMVPTTYRPTHNRTLPPPDQVITTEVKNILIRSFYQRAEEKLRPKRPATDHLAAEHVNKHFRAASSSSSTQGL
notes: BiFC construct expressed transiently in N. benthamiana leaves; also called DDA1 fusion with the C-portion of YFP; not shown: C-portion of the yellow fluorescent protein (YFP)
B1 was tested, and the binding [1] was “binds” and the binding [2] was “binds”.
